Measurements from US20210261636A1, “NEOANTIGENS EXPRESSED IN MULTIPLE MYELOMA AND THEIR USES” (Janssen Biotech, Inc., priority 2020, published 2021).

Each sequence was assayed on CD138+ MM samples, MM and lymphoma cell lines, healthy donor PBMCs, sorted immune cells and healthy donor derived tissues (assay: Quantitative PCR analysis of multiple myeloma neoantigen expression in tumor and normal tissues). Conditions: qPCR, Ct normalized against RPL13A; high expression = ΔCt below 15; sorted immune cells from three healthy donors.
Parameters: species or system human
“GRAGQGGGMISVSQEFIK [FUS7, gene fusion FAM98A-> LOC105374454]” was tested, and the “expression in normal donor-derived B-cells and plasma cells” value (“expression” below) was “showing expression”.
In the case of “IALQYCCTCSISQ [AS43, alternative splicing, LYSMD3]”, the “expression” value is reported as “showing expression”.
“ISKRLKSRRRSGWQLNRAGNRGLSPGLGLFPRGCCRWGGAYTRLPSANQT [FUS20, gene fusion PTGES2-> SLC25A25-AS1]” was tested, and the “expression” value was “showing expression”.
For “QRDRDSIKVGLKIYRLRNGLKGL [AS76, alternative splicing, TLE4]”, the “expression” value was “showing expression”.
